{"source": "paper PMC8537493", "key": {"[1]": {"target": "T1, P2X4 receptor (P2X4R) (human (endogenous in immortalized human microglial cells)) (UniProt Q99571)", "T1 sequence": "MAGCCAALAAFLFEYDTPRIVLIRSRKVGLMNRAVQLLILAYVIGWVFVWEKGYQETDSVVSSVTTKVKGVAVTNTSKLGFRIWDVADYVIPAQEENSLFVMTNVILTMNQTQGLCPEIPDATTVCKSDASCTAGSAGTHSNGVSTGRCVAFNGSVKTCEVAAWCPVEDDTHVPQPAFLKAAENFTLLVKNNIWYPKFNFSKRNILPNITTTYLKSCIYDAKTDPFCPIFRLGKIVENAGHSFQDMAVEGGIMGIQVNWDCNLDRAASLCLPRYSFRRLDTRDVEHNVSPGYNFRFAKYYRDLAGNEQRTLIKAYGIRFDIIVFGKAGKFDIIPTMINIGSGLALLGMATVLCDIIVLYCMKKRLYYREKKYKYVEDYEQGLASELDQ", "assay": "proximity ligation; Duolink in situ PLA on fixed, permeabilised human microglial cells with antibodies against MFG-E8 and P2X4; cells untreated or treated with 1 AU of EVs for 30 min, 1 h and 2 h (2 h: PLA dots 4.3-fold of control)"}, "[2]": {"target": "T1, P2X4 receptor (P2X4R) (human (endogenous in immortalized human microglial cells))", "assay": "co-IP; lysates of human microglial cells (Pierce IP lysis buffer), treated or not with EVs for 2 h; immunoprecipitation with antibody against P2X4 receptor or against MFG-E8, protein A/G agarose, 4 °C; blots for MFG-E8 and P2X4 receptor"}}, "note": "No constants are given. Whether binding was seen depends on the method and setting. In cells and extracts the contact can be indirect. A result given as binding can be weak or reduced; the word gives no strength.", "data": [{"substance": "milk fat globule-epidermal growth factor-factor VIII (MFG-E8)", "values": [{"measurement": "binding", "setting": "[1]", "value": "binds"}, {"measurement": "binding", "setting": "[2]", "value": "binds"}]}]}
